The supplement of paper PMC6411743
± gives the standard deviation of the averaged measurements. The entries are a selection whose mix differs from that of the whole data set. Most values lie at the level of the controls, where differences are scatter.

Amino acid sequences for entries named in this document (tags omitted). A change or cut given only in a name is not applied to a line headed by its entry.
UniProt Q9BU76: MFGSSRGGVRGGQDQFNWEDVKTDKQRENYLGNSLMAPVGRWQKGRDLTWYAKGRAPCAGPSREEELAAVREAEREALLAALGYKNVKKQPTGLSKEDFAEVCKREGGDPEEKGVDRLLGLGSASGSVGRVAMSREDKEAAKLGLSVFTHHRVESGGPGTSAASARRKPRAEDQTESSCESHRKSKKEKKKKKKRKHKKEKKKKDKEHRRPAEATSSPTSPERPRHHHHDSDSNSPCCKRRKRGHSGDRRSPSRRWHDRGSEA
UniProt Q9BT25: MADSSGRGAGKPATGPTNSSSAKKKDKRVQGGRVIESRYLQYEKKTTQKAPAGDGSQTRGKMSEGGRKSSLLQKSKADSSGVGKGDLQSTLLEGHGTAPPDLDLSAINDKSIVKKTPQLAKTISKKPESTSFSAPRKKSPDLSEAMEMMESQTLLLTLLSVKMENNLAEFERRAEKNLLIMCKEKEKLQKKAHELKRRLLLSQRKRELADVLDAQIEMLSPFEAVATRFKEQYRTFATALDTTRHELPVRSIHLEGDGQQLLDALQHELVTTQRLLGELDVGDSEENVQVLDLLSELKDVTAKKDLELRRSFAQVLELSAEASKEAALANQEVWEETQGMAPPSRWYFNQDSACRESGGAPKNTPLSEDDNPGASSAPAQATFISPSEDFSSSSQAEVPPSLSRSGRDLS
UniProt Q9BQ67, whole entry: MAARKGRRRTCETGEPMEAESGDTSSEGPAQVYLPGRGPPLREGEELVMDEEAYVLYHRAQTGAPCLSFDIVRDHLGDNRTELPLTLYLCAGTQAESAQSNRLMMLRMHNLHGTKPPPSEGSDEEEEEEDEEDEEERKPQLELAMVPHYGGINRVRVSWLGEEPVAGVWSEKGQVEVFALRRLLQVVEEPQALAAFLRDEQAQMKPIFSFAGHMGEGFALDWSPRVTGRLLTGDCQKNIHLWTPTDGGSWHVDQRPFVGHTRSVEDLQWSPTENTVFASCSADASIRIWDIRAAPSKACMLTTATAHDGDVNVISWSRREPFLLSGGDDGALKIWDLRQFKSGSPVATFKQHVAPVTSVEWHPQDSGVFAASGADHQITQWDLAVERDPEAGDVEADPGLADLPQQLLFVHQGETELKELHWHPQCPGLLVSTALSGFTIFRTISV
UniProt Q9BUE6: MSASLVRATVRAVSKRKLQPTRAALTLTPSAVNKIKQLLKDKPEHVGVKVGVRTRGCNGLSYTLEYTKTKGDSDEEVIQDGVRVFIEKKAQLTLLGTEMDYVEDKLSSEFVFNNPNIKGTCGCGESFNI
UniProt Q99543: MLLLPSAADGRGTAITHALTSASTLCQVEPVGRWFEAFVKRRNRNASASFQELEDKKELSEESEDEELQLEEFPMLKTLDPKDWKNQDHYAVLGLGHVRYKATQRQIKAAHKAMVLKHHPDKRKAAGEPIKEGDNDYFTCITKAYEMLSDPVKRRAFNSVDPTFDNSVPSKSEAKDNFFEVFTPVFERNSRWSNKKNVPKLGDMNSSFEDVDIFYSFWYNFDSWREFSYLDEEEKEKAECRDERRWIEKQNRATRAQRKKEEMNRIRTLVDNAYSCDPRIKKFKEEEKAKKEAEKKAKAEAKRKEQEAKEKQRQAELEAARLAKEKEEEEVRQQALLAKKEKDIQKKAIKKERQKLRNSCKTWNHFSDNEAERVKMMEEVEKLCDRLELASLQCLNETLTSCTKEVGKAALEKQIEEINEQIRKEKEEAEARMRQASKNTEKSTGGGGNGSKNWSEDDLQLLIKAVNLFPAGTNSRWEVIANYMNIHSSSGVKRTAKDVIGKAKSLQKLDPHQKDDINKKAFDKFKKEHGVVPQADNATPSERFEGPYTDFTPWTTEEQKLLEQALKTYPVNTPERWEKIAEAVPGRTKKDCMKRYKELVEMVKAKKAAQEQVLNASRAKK
UniProt Q9BRZ2: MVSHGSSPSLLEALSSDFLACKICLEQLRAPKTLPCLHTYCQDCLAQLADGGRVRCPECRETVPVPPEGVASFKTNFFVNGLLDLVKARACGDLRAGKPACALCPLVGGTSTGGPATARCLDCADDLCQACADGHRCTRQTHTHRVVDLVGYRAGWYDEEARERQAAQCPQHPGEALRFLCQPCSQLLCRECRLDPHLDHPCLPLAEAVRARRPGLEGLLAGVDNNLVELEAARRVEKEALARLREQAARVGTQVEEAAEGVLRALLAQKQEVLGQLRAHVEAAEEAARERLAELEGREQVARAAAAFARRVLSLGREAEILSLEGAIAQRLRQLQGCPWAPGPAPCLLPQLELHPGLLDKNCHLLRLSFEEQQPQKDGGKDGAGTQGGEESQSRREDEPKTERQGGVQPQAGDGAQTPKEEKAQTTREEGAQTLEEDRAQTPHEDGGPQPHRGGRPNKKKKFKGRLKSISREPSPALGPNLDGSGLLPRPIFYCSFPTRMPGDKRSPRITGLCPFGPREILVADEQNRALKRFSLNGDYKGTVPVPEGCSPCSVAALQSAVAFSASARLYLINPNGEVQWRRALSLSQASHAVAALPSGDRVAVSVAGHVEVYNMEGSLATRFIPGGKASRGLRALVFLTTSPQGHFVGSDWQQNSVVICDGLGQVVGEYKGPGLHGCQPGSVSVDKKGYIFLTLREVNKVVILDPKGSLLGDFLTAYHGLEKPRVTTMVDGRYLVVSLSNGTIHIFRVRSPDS
UniProt Q9BW85: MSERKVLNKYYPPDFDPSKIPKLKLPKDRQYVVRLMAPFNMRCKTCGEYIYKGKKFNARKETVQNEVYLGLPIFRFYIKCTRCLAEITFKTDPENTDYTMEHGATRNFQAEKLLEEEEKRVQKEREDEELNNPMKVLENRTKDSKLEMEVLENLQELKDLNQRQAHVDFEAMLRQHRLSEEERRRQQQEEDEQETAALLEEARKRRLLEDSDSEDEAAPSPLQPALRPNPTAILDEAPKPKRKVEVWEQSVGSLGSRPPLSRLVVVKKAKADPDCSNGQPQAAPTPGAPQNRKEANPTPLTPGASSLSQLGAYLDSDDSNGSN
UniProt Q9BRX2, whole entry: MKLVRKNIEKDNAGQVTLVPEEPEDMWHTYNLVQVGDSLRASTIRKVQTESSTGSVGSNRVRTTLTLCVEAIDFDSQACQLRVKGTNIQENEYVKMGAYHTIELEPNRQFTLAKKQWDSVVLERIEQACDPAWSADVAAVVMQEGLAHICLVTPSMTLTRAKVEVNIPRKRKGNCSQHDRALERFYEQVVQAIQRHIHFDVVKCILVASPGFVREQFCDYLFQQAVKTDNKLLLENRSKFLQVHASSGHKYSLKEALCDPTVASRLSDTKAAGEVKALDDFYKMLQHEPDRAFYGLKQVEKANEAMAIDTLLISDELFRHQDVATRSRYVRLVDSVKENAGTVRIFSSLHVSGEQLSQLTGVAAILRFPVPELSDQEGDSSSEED
UniProt Q9BQ61: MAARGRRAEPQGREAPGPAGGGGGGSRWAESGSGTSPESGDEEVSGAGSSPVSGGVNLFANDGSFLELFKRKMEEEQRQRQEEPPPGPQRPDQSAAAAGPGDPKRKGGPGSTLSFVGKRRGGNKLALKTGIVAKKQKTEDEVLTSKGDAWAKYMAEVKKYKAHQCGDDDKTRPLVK
UniProt Q9BQE9, whole entry: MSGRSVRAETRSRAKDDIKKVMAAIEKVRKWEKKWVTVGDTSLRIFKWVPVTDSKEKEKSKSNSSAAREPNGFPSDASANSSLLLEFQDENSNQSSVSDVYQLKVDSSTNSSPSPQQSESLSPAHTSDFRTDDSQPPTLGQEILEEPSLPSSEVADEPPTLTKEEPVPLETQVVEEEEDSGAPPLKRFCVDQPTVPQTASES
UniProt Q9BVK6: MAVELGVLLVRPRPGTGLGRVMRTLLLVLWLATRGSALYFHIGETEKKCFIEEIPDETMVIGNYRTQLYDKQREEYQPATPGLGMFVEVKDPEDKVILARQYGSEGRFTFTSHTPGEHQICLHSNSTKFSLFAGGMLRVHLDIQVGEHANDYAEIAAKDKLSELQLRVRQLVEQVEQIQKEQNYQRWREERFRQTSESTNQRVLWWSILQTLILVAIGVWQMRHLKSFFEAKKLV
UniProt Q9BTK6, whole entry: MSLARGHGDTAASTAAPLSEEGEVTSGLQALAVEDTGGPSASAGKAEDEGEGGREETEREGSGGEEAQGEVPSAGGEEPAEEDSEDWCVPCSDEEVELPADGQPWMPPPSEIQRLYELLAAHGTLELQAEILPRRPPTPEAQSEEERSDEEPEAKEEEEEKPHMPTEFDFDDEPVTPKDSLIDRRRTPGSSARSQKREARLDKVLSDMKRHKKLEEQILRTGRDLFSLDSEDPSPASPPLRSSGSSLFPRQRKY
UniProt Q9BUT1: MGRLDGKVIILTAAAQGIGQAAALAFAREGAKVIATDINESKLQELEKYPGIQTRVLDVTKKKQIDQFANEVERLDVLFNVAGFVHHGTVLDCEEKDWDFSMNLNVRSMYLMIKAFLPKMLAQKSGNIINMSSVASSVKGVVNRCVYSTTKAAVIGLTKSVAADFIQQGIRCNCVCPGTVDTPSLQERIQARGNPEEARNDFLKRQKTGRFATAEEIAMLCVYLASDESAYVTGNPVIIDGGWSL
UniProt Q9BRS2: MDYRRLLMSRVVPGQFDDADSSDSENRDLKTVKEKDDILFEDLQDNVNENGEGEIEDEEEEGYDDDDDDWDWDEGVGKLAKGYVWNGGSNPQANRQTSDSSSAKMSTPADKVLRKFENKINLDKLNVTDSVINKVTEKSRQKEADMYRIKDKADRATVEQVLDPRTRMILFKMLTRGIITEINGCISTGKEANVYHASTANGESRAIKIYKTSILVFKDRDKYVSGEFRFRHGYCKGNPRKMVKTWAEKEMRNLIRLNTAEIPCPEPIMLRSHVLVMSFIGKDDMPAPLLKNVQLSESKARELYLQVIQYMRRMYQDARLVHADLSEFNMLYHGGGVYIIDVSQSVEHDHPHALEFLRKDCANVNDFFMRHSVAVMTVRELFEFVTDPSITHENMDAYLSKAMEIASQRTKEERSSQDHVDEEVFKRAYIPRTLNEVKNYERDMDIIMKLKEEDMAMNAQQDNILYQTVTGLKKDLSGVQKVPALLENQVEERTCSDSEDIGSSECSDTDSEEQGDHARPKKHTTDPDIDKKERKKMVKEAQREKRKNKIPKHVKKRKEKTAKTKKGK
UniProt Q9BWH2: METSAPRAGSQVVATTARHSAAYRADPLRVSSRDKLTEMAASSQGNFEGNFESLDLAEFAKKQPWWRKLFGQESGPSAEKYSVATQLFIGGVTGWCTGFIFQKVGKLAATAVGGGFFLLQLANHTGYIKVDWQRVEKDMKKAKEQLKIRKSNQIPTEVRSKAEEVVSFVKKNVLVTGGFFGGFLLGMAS
UniProt Q9BQP7: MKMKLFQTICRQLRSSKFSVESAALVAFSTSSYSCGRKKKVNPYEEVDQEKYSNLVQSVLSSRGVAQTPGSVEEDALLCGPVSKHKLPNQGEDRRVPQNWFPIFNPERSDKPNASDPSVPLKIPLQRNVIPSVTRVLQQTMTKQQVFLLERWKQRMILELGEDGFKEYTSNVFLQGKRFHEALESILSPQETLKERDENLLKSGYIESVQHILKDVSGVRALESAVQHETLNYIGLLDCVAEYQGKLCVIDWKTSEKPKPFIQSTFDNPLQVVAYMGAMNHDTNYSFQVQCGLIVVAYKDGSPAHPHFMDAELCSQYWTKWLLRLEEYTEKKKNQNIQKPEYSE
UniProt Q9BTE1, whole entry: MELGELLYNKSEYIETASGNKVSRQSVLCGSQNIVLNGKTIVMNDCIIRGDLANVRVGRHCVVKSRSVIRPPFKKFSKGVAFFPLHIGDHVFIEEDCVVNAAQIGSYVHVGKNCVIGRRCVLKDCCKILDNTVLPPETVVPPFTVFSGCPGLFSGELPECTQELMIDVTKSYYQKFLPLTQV
UniProt Q9BUP0: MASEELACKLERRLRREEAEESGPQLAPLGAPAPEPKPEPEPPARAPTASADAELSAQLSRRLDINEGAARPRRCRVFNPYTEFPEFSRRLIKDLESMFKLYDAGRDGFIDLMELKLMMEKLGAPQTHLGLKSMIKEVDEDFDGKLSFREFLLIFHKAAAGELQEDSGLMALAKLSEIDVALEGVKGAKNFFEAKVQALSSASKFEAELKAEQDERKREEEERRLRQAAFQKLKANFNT
UniProt Q99704: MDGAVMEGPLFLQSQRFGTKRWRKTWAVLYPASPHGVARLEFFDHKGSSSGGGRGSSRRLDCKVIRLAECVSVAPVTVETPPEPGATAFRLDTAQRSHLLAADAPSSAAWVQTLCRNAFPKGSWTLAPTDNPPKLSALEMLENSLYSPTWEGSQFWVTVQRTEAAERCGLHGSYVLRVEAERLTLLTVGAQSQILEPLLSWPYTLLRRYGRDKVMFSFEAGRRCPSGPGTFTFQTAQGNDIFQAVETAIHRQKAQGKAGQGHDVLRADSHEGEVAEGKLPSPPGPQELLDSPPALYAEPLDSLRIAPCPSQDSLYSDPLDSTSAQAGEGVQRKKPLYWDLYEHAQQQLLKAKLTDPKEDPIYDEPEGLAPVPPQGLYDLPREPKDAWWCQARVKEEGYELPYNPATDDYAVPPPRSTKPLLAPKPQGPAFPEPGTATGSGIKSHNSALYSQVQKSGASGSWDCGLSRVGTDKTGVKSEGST

These targets were tested with Nc1ncnc2c1ncn2[C@@H]1O[C@H](COP(=O)(O)OP(=O)(O)OP(=O)(O)O)[C@@H](O)[C@H]1O [adenosine triphosphate] (assay: NP40-soluble protein abundance relative to vehicle (solubility fold change) (ratio); higher = more soluble protein in presence of ATP). Conditions: concentration: 0.1mM.
Summary of the method: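 Eight concentrations, 0.1 to 10 mM, were tested on Jurkat crude lysate for 10 min at room temperature and then 3 min at 37 °C, in three independent experiments. The lysate was solubilised with 0.8% NP40 and benzonase, ultracentrifuged, and the supernatant TMT-labelled for LC-MS/MS. Each value is the fold change against the detergent-processed vehicle in its own replicate, from vsn-normalised intensities.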
For ULBP2 (UniProt Q9BZM5), the NP40-soluble protein abundance was 0.933 ± 0.074. Work on UniProt Q9BU76 and related entries yielded an NP40-soluble protein abundance of 0.966 ± 0.041. SGPP1 (UniProt Q9BX95) showed an NP40-soluble protein abundance of 1.05 ± 0.059. Target MRPL20 (UniProt Q9BYC9) has an NP40-soluble protein abundance of 0.937 ± 0.083. Target UniProt Q9BT25 and related entries has an NP40-soluble protein abundance of 0.974 ± 0.052. In the case of UniProt Q9BY77 and related entries, the NP40-soluble protein abundance is reported as 0.955 ± 0.025. UniProt Q99447 and related entries gave an NP40-soluble protein abundance of 1.04 ± 0.1. Work on GRWD1 (UniProt Q9BQ67) yielded an NP40-soluble protein abundance of 1.03 ± 0.029. UniProt Q9BUE6 and related entries gave an NP40-soluble protein abundance of 1 ± 0.028. DNAJC2 (UniProt Q99543) was tested, and the NP40-soluble protein abundance was 1.02 ± 0.039. For FSD1 (UniProt Q9BTV5), the NP40-soluble protein abundance was 1.05 ± 0.067. For TRIM56 (UniProt Q9BRZ2), the NP40-soluble protein abundance was 1.02 ± 0.068. UniProt Q9BW85 showed an NP40-soluble protein abundance of 0.918 ± 0.044. PELO (UniProt Q9BRX2) gave an NP40-soluble protein abundance of 1.05 ± 0.087. For NAPG (UniProt Q99747), the NP40-soluble protein abundance was 0.933 ± 0.048. UniProt Q9BQ61 gave an NP40-soluble protein abundance of 0.91 ± 0.13. With UniProt Q96TC7 the NP40-soluble protein abundance was 0.997 ± 0.018. For MED18 (UniProt Q9BUE0), the NP40-soluble protein abundance was 1.03 ± 0.065. With BCL7B (UniProt Q9BQE9) the NP40-soluble protein abundance was 0.881 ± 0.13. Target UniProt Q99623 has an NP40-soluble protein abundance of 0.956 ± 0.03. TMED9 (UniProt Q9BVK6) was tested, and the NP40-soluble protein abundance was 1.07 ± 0.11. “UniProt Q9BZ29-4|A0A088AWN3|A0A0A0MRA7|A0A0A0MSY4|Q9BZ29 and related entries” gave an NP40-soluble protein abundance of 1.1 ± 0.037. Work on TRMT61B (UniProt Q9BVS5) yielded an NP40-soluble protein abundance of 1.01 ± 0.035. UniProt Q99538 and related entries showed an NP40-soluble protein abundance of 0.945 ± 0.042. UniProt Q9BSI4-2 showed an NP40-soluble protein abundance of 1.08 ± 0.013. Target UniProt Q9BTK6 has an NP40-soluble protein abundance of 0.866 ± 0.19. UniProt Q9BUT1 and related entries showed an NP40-soluble protein abundance of 0.967 ± 0.025. In the case of UniProt Q9BVS4, the NP40-soluble protein abundance is reported as 1 ± 0.076. UniProt Q9BUK6 and related entries showed an NP40-soluble protein abundance of 1.03 ± 0.061. With RIOK1 (UniProt Q9BRS2) the NP40-soluble protein abundance was 1.031 ± 0.0096. Work on FUNDC2 (UniProt Q9BWH2) yielded an NP40-soluble protein abundance of 0.923 ± 0.017. Work on UniProt Q9BQP7 yielded an NP40-soluble protein abundance of 1.01 ± 0.027. For DCTN5 (UniProt Q9BTE1), the NP40-soluble protein abundance was 1.02 ± 0.028. UniProt Q9BVC4 and related entries was tested, and the NP40-soluble protein abundance was 1.01 ± 0.06. EFHD1 (UniProt Q9BUP0) showed an NP40-soluble protein abundance of 0.818 ± 0.088. DOK1 (UniProt Q99704) was tested, and the NP40-soluble protein abundance was 0.978 ± 0.041. Target UniProt Q9BRX9 has an NP40-soluble protein abundance of 1.03 ± 0.066.

Same assay, conditions: concentration: 0.5mM
Work on ULBP2 (UniProt Q9BZM5) yielded an NP40-soluble protein abundance of 0.939 ± 0.075. UniProt Q9BU76 and related entries gave an NP40-soluble protein abundance of 1.02 ± 0.044. For SGPP1 (UniProt Q9BX95), the NP40-soluble protein abundance was 0.954 ± 0.04. In the case of MRPL20 (UniProt Q9BYC9), the NP40-soluble protein abundance is reported as 0.995 ± 0.088. UniProt Q9BT25 and related entries was tested, and the NP40-soluble protein abundance was 0.897 ± 0.068. UniProt Q9BY77 and related entries was tested, and the NP40-soluble protein abundance was 0.933 ± 0.012. In the case of UniProt Q99447 and related entries, the NP40-soluble protein abundance is reported as 1.03 ± 0.095. Target GRWD1 (UniProt Q9BQ67) has an NP40-soluble protein abundance of 1.05 ± 0.03. UniProt Q9BUE6 and related entries gave an NP40-soluble protein abundance of 1.02 ± 0.1. DNAJC2 (UniProt Q99543) was tested, and the NP40-soluble protein abundance was 1.02 ± 0.048. Target FSD1 (UniProt Q9BTV5) has an NP40-soluble protein abundance of 1.04 ± 0.047. TRIM56 (UniProt Q9BRZ2) showed an NP40-soluble protein abundance of 1 ± 0.064. With UniProt Q9BW85 the NP40-soluble protein abundance was 0.958 ± 0.058. PELO (UniProt Q9BRX2) gave an NP40-soluble protein abundance of 1.05 ± 0.045. For NAPG (UniProt Q99747), the NP40-soluble protein abundance was 0.912 ± 0.028. Work on UniProt Q9BQ61 yielded an NP40-soluble protein abundance of 0.881 ± 0.16. For UniProt Q96TC7, the NP40-soluble protein abundance was 1.03 ± 0.033. With MED18 (UniProt Q9BUE0) the NP40-soluble protein abundance was 1.08 ± 0.077. Target BCL7B (UniProt Q9BQE9) has an NP40-soluble protein abundance of 0.944 ± 0.17. UniProt Q99623 showed an NP40-soluble protein abundance of 0.964 ± 0.034. With TMED9 (UniProt Q9BVK6) the NP40-soluble protein abundance was 1.03 ± 0.095. “UniProt Q9BZ29-4|A0A088AWN3|A0A0A0MRA7|A0A0A0MSY4|Q9BZ29 and related entries” was tested, and the NP40-soluble protein abundance was 0.943 ± 0.065. Work on TRMT61B (UniProt Q9BVS5) yielded an NP40-soluble protein abundance of 1.02 ± 0.059. Work on UniProt Q99538 and related entries yielded an NP40-soluble protein abundance of 0.917 ± 0.014. Work on UniProt Q9BSI4-2 yielded an NP40-soluble protein abundance of 1.25 ± 0.04. In the case of UniProt Q9BTK6, the NP40-soluble protein abundance is reported as 0.829 ± 0.21. In the case of UniProt Q9BUT1 and related entries, the NP40-soluble protein abundance is reported as 0.9458 ± 0.0039. UniProt Q9BVS4 showed an NP40-soluble protein abundance of 1.07 ± 0.077. Target UniProt Q9BUK6 and related entries has an NP40-soluble protein abundance of 1.06 ± 0.037. With RIOK1 (UniProt Q9BRS2) the NP40-soluble protein abundance was 1.07 ± 0.067. FUNDC2 (UniProt Q9BWH2) was tested, and the NP40-soluble protein abundance was 0.912 ± 0.046. For UniProt Q9BQP7, the NP40-soluble protein abundance was 1.02 ± 0.038. DCTN5 (UniProt Q9BTE1) showed an NP40-soluble protein abundance of 0.977 ± 0.086. For UniProt Q9BVC4 and related entries, the NP40-soluble protein abundance was 0.965 ± 0.044. EFHD1 (UniProt Q9BUP0) was tested, and the NP40-soluble protein abundance was 0.753 ± 0.054. With DOK1 (UniProt Q99704) the NP40-soluble protein abundance was 0.996 ± 0.078. UniProt Q9BRX9 showed an NP40-soluble protein abundance of 0.982 ± 0.1.
